Values from PubChem BioAssay AID1508588 (Peter MacCallum Cancer Centre, 2020)

Screen: 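Which gene losses make BRAF-mutant melanoma cells more responsive to vemurafenib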 (primary screen)
Cell system: human WM266.4 melanoma cells (BRAF V600 mutant)
Reagents: siRNA pool against human genes, 40 nM
Time to read-out: 96 h from transfection to read-out
Challenge: vemurafenib 300 nM (about IC25), added 48 h after transfection, for 48 h; comparison arm got DMSO vehicle only
Detection: 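Ratios to non-targeting siRNA for cell gain, counted as DAPI nuclei after minus before drug and averaged over two replicates, and for absorbance-read medium lactate per cell; both binned into fold-change classes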
Reading the numbers: cell gain with vemurafenib: higher = more cell gain than with non-targeting siRNA; lactate per cell with vemurafenib: higher = more lactate made per cell
Hit rule: 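a knock-down counts as enhancing when its fold-change classes with vehicle and with vemurafenib, taken together, show a stronger drug effect on cell gain or lactate per cell; exact class pairs not stated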
Calls: active = enhances vemurafenib effect; inactive = no enhancement seen
The whole screen tested about 18,000 reagents; this is an unselected part. 790 of them (4.4%) count as active. 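Calls rest on a combination of fold-change classes in drug and vehicle arms, not all shown here.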 A number with no mark means an inactive call.

gene | cell gain with vemurafenib | lactate per cell with vemurafenib
H2BC13 | 0.59 | 1.15
LRFN2 | 0.11 (active) | 0.31
ZBTB5 | 0.47 | 0.26
ETNK2 | -0.13 (active) | -0.37
UBAP2L | 0.38 | 0.75
TTC8 | 0.95 | 1.1
VOPP1 | 0.55 | 0.87
SSC4D | 0.55 | 0.76
NIM1K | 0.95 | 0.5
FCRL5 | 0.85 | 1.01
NOL11 | 0.19 | 1.57
USP50 | 0.64 | 1.18
POLB | 0.57 | 0.7
SCGB2B2 | 0.74 | 0.84
CD163 | 0.53 | 1.29
ABCB7 | 0.27 | 0.64
ACAP1 | 0.98 | 0.83
PLAAT2 | 0.57 | 0.81
GORASP1 | 0.47 | 1.3
KRTAP5-11 | 0.09 | 0.89
WDR38 | 0.5 | 0.8
SP100 | -0.04 | 1.54
ZFTRAF1 | 0.24 | 0.02
CMAS | 0.65 | 1.23
RPLP0 | -0.12 | 2.38
PKD1L1 | 0.55 | 1.82
IP6K1 | 0.88 | 0.98
FADS3 | 0.42 | 2.06
DHX9 | 0.42 | 1.56
SLC35D2 | 0.42 | 1.38
GPRC5C | 0.37 | 1.82
CPSF4 | 0.75 | 1
NACC1 | 0.47 | 0.9
ZNF528 | 0.16 | 1.66
SMARCD3 | 0.79 | 1.43
CCDC183 | 0.62 | 0.87
KNTC1 | 0.6 (active) | 0.57
ZC3H18-DT | 0.84 | 0.94
SP4 | 0.28 | 1.92
SYNPO2L | 0.18 (active) | 0.46
GSN | 0.28 | 0.98
KRTAP12-4 | 0.56 | 0.84
GAA | 0.79 | 1.02
CTAG1A | 0.54 | 1.98
NECAB1 | 0.98 | 0.36
TMEM52B | 0.56 | 1.22
ATAD3A | 0.83 | 0.69

Targets above whose gene name starts with N or n:
gene | cell gain with vemurafenib | lactate per cell with vemurafenib
NIM1K | 0.95 | 0.5
NOL11 | 0.19 | 1.57
NACC1 | 0.47 | 0.9
NECAB1 | 0.98 | 0.36

The listing continues:
gene | cell gain with vemurafenib | lactate per cell with vemurafenib
HOATZ | 0.66 (active) | 0.42
MAP3K6 | 0.6 | 1.12
FRRS1 | 0.44 | 0.94
RTL5 | 0.68 | 0.98
OR13C3 | 0.88 | 0.29
ABT1 | 1.15 | 0.66
PDE6C | 0.68 | 1.56
YY1 | 0.5 | 0.56
ILF3 | 0.27 | 0.68
MFHAS1 | 0.79 | 1.07
IKBKG | 0.64 | 1.71
ZFP41 | 1.26 | 0.58
RPL3L | 0.24 | 0.42
ZNF93 | 0.44 | 0.7
KRTAP10-8 | 0.37 | 2.37
MTMR11 | 0.33 | 0.68
NAA15 | 0.5 | 0.84
GFOD2 | 0.48 | 1.57
BEX2 | 0.31 | 0.65
GPA33 | 0.77 | 0.54
TSPEAR | 0.5 | 0.91
COX18 | 0.9 | 1.13
RBM4 | 0.66 | 1.08
PRPF18 | 0.34 | 1.7
SLC12A3 | 0.24 | 1.12
SPRY4 | 0.52 | 1.59
SLC15A4 | 0.99 | 0.44
SMIM12 | 0.73 | 0.88
BSPRY | 0.44 | 0.86
GRM4 | 0.84 | 0.85
TAS1R3 | 0.21 | 2.75
CSMD1 | 0.42 | 0.72
TUBA1A | -0.09 | 3.1
PSG11 | 0.69 | 0.73
DDN | 0.73 | 0.94
GPR4 | 0.31 | 1.19
RAB35 | 0.68 | 0.7
